The values that follow come from patent US20140350088.

Sequences of proteins named here, by UniProt entry; tags and fusion partners are left off. Residues count along the entry.
UniProt P01275, 53-81: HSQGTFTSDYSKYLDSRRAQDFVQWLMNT

Construct, isoform or probe ends are uncertain for at least one entry. A weaker result is weaker than the reference pair of the same experiment.

The series deals with biotinylated human glucagon (Homo sapiens) (UniProt P01275). Kind of series: competition with a labelled probe. The following applies: L-DNA, synthetic protein, mirror-image nucleic acid.

In the case of “GCAGTGGGGAAATGGGAGGGCTAGGTGGAAGGAATCTGAGCTACTGC [257-E1-R8-001]”, the binding result (rG at 8, reduced or lost binding vs parent, variant of 257-E1-001) is “binds more weakly”.
Turning to “GCAGTGGGGAAATGGGAGGGCTAGGTGGAAGGAATCTGAGCTACTGC [257-E1-R9-001]”, for the setting “rG at 9, improved vs parent, competitive pull-down, variant of 257-E1-001”, the binding result was “binds”.
“GCAGTGGGGAAATGGGAGGGCTAGGTGGAAGGAATCTGAGCTACTGC [257-E1-R10-001]”: the binding result (rA at 10, reduced or lost binding vs parent, variant of 257-E1-001) is reported as “binds more weakly”.
For “GCAGTGGGGAAATGGGAGGGCTAGGTGGAAGGAATCTGAGCTACTGC [257-E1-R11-001]”, the binding result (ribo at 11, reduced or lost vs parent, 37 C, synthetic backbone) was “binds more weakly”.
In the case of “GCAGTGGGGAAATGGGAGGGCTAGGTGGAAGGAATCTGAGCTACTGC [257-E1-R12-001]”, the binding result (ribo at 12, reduced or lost vs parent, 37 C, synthetic backbone) is on record as “binds more weakly”.
In the case of “GCAGTGGGGAAATGGGAGGGCTAGGTGGAAGGAATCTGAGCTACTGC [257-E1-R14-001]”, under “ribo at 14, reduced or lost vs parent, 37 C, synthetic backbone”, the binding result is “binds more weakly”.
Take “GCAGTGGGGAAATGGGAGGGCTAGGTGGAAGGAATCTGAGCTACTGC [257-E1-R15-001]”: the binding result (rG at 15, improved vs parent, among best, competitive pull-down, variant of 257-E1-001) is listed as “binds”.
For “GCAGTGGGGAAATGGGAGGGCTAGGTGGAAGGAATCTGAGCTACTGC [257-E1-R15/18/29/30-001]”, the binding result (rG at 15, 18, rA at 29, 30, no further improvement over R15/29/30, variant of 257-E1-001) is “binds”.
As to “GCAGTGGGGAAATGGGAGGGCTAGGTGGAAGGAATCTGAGCTACTGC [257-E1-R15/29-001]”, the binding result (rG at 15, rA at 29, better than single substitutions, variant of 257-E1-001) was “binds”.
As for “GCAGTGGGGAAATGGGAGGGCTAGGTGGAAGGAATCTGAGCTACTGC [257-E1-R15/29/30-001]”, the binding result (rG at 15, rA at 29, 30, better than R29/30, comparable to R15/29, variant of 257-E1-001) is on record as “binds”.
Consider “GCAGTGGGGAAATGGGAGGGCTAGGTGGAAGGAATCTGAGCTACTGC [257-E1-R16-001]”, for which, for the setting “ribo at 16, reduced or lost vs parent, 37 C, synthetic backbone”, the binding result is “binds more weakly”.
With “GCAGTGGGGAAATGGGAGGGCTAGGTGGAAGGAATCTGAGCTACTGC [257-E1-R17-001]”, the binding result (ribo at 17, reduced or lost vs parent, 37 C, synthetic backbone) is “binds more weakly”.
“GCAGTGGGGAAATGGGAGGGCTAGGTGGAAGGAATCTGAGCTACTGC [257-E1-R18-001]”: the binding result (rG at 18, improved vs parent, competitive pull-down, variant of 257-E1-001) is listed as “binds”.
For the sequence “GCAGTGGGGAAATGGGAGGGCTAGGTGGAAGGAATCTGAGCTACTGC [257-E1-R18/29/30-001]”, the binding result (rG at 18, rA at 29, 30, better than R29/30, weaker than R15/29/30, variant of 257-E1-001) was “binds”.
Consider “GCAGTGGGGAAATGGGAGGGCTAGGTGGAAGGAATCTGAGCTACTGC [257-E1-R19-001]”, for which, under “rG at 19, improved vs parent, competitive pull-down, variant of 257-E1-001”, the binding result was “binds”.
For “GCAGTGGGGAAATGGGAGGGCTAGGTGGAAGGAATCTGAGCTACTGC [257-E1-R20-001]”, the binding result (ribo at 20, reduced or lost vs parent, 37 C, synthetic backbone) is “binds more weakly”.
“GCAGTGGGGAAATGGGAGGGCTAGGTGGAAGGAATCTGAGCTACTGC [257-E1-R21-001]”: for the setting “ribo at 21, reduced or lost vs parent, 37 C, synthetic backbone”, the binding result is “binds more weakly”.
As to “GCAGTGGGGAAATGGGAGGGCTAGGTGGAAGGAATCTGAGCTACTGC [257-E1-R23-001]”, the binding result (ribo at 23, reduced or lost vs parent, 37 C, synthetic backbone) is on record as “binds more weakly”.
On to “GCAGTGGGGAAATGGGAGGGCTAGGTGGAAGGAATCTGAGCTACTGC [257-E1-R24-001]”, for which the binding result (ribo at 24, reduced or lost vs parent, 37 C, synthetic backbone) is listed as “binds more weakly”.
Consider “GCAGTGGGGAAATGGGAGGGCTAGGTGGAAGGAATCTGAGCTACTGC [257-E1-R25-001]”, for which the binding result (ribo at 25, reduced or lost vs parent, 37 C, synthetic backbone) is on record as “binds more weakly”.
With “GCAGTGGGGAAATGGGAGGGCTAGGTGGAAGGAATCTGAGCTACTGC [257-E1-R27-001]”, the binding result (ribo at 27, reduced or lost vs parent, 37 C, synthetic backbone) was “binds more weakly”.
As for “GCAGTGGGGAAATGGGAGGGCTAGGTGGAAGGAATCTGAGCTACTGC [257-E1-R28-001]”, the binding result (ribo at 28, reduced or lost vs parent, 37 C, synthetic backbone) was “binds more weakly”.
With “GCAGTGGGGAAATGGGAGGGCTAGGTGGAAGGAATCTGAGCTACTGC [257-E1-R29-001]”, the binding result (rA at 29, improved vs parent, among best, competitive pull-down, variant of 257-E1-001) is given as “binds”.
Regarding “GCAGTGGGGAAATGGGAGGGCTAGGTGGAAGGAATCTGAGCTACTGC [257-E1-R29/30-001]”, under “rA at 29, 30, better than single substitutions, variant of 257-E1-001”, the binding result was “binds”.
Take “GCAGTGGGGAAATGGGAGGGCTAGGTGGAAGGAATCTGAGCTACTGC [257-E1-R30-001]”: under “rA at 30, improved vs parent, among best, competitive pull-down, variant of 257-E1-001”, the binding result was “binds”.
With “GCAGTGGGGAAATGGGAGGGCTAGGTGGAAGGAATCTGAGCTACTGC [257-E1-R31-001]”, the binding result (ribo at 31, reduced or lost vs parent, 37 C, synthetic backbone) is “binds more weakly”.
Turning to “GCAGTGGGGAAATGGGAGGGCTAGGTGGAAGGAATCTGAGCTACTGC [257-E1-R32-001]”, the binding result (ribo at 32, reduced or lost vs parent, 37 C, synthetic backbone) is on record as “binds more weakly”.
As for “GCAGTGGGGAAATGGGAGGGCTAGGTGGAAGGAATCTGAGCTACTGC [257-E1-R33-001]”, the binding result (ribo at 33, reduced or lost vs parent, 37 C, synthetic backbone) is “binds more weakly”.
In the case of “GCAGTGGGGAAATGGGAGGGCTAGGTGGAAGGAATCTGAGCTACTGC [257-E1-R34-001]”, under “ribo at 34, reduced or lost vs parent, 37 C, synthetic backbone”, the binding result is recorded as “binds more weakly”.
Turning to “GCAGTGGGGAAATGGGAGGGCTAGGTGGAAGGAATCTGAGCTACTGC [257-E1-R36-001]”, the binding result (ribo at 36, reduced or lost vs parent, 37 C, synthetic backbone) is “binds more weakly”.
For the sequence “GCAGTGGGGAAATGGGAGGGCTAGGTGGAAGGAATCTGAGCTACTGC [257-E1-R38-001]”, the binding result (ribo at 38, reduced or lost vs parent, 37 C, synthetic backbone) is reported as “binds more weakly”.
“GCAGTGGGGAAATGGGAGGGCTAGGTGGAAGGAATCTGAGCTACTGC [257-E1-R39-001]”: the binding result (ribo at 39, reduced or lost vs parent, 37 C, synthetic backbone) was “binds more weakly”.
As to “GCAGTGGGGAAATGGGAGGGCTAGGTGGAAGGAATCTGAGCTACTGC [257-E1-R40-001]”, the binding result (ribo at 40, reduced or lost vs parent, 37 C, synthetic backbone) was “binds more weakly”.
As for “GCAGTGGGGAAATGGGAGGGCTAGGTGGAAGGAATCTGAGCTACTGC [257-E1-R41-001]”, the binding result (ribo at 41, reduced or lost vs parent, 37 C, synthetic backbone) is given as “binds more weakly”.
On to “GCAGTGGGGAAATGGGAGGGCTAGGTGGAAGGAATCTGAGCTACTGC [257-E1-R43-001]”, for which the binding result (ribo at 43, reduced or lost vs parent, 37 C, synthetic backbone) was “binds more weakly”.
In the case of “GCAGTGGGGAAATGGGAGGGCTAGGTGGAAGGAATCTGAGCTACTGC [257-E1-R44-001]”, under “ribo at 44, reduced or lost vs parent, 37 C, synthetic backbone”, the binding result is reported as “binds more weakly”.
Take “GCAGTGGGGAAATGGGAGGGCTAGGTGGAAGGAATCTGAGCTACTGC [257-E1-R46-001]”: the binding result (rG at 46, affinity unchanged vs parent, variant of 257-E1-001) is reported as “binds”.
Turning to “GCAGTGGGGAAATGGGAGGGCTAGGTGGAAGGAATCTGAGCTACTGC [257-E1-R47-001]”, the binding result (ribo at 47, reduced or lost vs parent, 37 C, synthetic backbone) is listed as “binds more weakly”.
In the case of “GCAGTGGGGAAATGGGAGGGCTAGGTGGAAGGAATCTGAGCTACUGC [257-E1-R45-001]”, the binding result (rU at 45, reduced or lost vs parent, 37 C, synthetic backbone) is recorded as “binds more weakly”.
Regarding “GCAGTGGGGAAATGGGAGGGCTAGGTGGAAGGAATCTGAGCUACTGC [257-E1-R42-001]”, the binding result (rU at 42, reduced or lost vs parent, 37 C, synthetic backbone) is given as “binds more weakly”.
Turning to “GCAGTGGGGAAATGGGAGGGCTAGGTGGAAGGAATCUGAGCTACTGC [257-E1-R37-001]”, the binding result (rU at 37, reduced or lost vs parent, 37 C, synthetic backbone) is “binds more weakly”.
For “GCAGTGGGGAAATGGGAGGGCTAGGTGGAAGGAAUCTGAGCTACTGC [257-E1-R35-001]”, the binding result (rU at 35, reduced or lost vs parent, 37 C, synthetic backbone) was “binds more weakly”.
For “GCAGTGGGGAAATGGGAGGGCTAGGUGGAAGGAATCTGAGCTACTGC [257-E1-R26-001]”, where the note is “rU at 26, affinity unchanged vs parent, variant of 257-E1-001”, the binding result was “binds”.
